# The list shows a part of the results.
# Protein sequences, listed by entry. Tags and fused reporters are not part of them. Lines headed by an entry give the natural chain unless they say otherwise; changes in a name come on top.
# UniProt Q92624: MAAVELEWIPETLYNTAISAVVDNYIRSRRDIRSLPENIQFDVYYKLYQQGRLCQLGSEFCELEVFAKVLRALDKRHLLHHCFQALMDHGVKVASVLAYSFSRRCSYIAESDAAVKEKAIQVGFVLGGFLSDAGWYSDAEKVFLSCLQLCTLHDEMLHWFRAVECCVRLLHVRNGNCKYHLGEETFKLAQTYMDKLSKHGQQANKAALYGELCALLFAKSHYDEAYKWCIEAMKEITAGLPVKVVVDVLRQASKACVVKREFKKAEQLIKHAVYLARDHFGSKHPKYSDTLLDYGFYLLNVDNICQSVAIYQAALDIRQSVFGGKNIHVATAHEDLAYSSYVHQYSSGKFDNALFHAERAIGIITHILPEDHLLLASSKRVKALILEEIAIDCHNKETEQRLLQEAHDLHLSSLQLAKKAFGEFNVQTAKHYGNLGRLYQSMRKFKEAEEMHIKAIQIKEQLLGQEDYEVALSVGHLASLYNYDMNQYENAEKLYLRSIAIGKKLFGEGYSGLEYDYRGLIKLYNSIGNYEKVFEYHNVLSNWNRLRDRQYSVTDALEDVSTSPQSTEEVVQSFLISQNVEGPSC
# UniProt Q02410: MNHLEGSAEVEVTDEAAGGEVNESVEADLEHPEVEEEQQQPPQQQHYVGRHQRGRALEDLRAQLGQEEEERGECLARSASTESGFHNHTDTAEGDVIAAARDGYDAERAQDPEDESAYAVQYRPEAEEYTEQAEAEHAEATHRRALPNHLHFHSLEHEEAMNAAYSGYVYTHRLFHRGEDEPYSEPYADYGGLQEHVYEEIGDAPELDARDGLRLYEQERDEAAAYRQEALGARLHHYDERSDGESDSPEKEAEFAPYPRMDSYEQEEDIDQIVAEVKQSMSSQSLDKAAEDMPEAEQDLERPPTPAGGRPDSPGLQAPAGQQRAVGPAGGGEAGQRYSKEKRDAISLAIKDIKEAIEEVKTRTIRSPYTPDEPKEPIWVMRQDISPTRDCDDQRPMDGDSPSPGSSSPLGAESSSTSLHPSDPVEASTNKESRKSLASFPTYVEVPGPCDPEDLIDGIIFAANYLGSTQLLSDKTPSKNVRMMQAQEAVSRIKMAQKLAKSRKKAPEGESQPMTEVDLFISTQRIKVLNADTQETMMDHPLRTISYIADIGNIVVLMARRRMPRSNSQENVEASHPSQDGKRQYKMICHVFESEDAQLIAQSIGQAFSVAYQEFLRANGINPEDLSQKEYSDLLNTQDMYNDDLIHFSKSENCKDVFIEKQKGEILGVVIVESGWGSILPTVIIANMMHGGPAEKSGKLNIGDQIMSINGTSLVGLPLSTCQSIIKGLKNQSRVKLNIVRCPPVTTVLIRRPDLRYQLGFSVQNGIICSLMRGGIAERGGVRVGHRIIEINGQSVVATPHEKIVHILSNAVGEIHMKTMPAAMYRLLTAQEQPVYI
# UniProt P05067, whole entry, looked up: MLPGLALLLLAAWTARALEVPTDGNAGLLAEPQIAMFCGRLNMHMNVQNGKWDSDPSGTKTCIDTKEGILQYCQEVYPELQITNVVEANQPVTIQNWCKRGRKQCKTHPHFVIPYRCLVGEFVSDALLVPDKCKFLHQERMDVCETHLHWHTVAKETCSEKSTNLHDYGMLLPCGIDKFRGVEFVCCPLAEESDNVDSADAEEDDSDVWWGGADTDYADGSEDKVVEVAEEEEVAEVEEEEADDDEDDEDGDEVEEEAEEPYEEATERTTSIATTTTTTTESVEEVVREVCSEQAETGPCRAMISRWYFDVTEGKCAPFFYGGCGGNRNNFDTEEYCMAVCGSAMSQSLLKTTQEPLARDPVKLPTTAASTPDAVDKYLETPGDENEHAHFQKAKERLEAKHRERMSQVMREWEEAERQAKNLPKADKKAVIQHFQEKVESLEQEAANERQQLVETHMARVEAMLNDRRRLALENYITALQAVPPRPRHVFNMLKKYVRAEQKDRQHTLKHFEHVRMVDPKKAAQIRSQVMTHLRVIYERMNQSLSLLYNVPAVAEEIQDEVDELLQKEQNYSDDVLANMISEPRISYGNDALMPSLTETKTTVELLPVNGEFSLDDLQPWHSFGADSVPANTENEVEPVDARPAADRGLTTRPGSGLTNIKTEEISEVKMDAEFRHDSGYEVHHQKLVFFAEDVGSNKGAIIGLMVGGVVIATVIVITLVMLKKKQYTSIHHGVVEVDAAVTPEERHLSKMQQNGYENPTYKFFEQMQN
# UniProt P25054, whole entry, looked up: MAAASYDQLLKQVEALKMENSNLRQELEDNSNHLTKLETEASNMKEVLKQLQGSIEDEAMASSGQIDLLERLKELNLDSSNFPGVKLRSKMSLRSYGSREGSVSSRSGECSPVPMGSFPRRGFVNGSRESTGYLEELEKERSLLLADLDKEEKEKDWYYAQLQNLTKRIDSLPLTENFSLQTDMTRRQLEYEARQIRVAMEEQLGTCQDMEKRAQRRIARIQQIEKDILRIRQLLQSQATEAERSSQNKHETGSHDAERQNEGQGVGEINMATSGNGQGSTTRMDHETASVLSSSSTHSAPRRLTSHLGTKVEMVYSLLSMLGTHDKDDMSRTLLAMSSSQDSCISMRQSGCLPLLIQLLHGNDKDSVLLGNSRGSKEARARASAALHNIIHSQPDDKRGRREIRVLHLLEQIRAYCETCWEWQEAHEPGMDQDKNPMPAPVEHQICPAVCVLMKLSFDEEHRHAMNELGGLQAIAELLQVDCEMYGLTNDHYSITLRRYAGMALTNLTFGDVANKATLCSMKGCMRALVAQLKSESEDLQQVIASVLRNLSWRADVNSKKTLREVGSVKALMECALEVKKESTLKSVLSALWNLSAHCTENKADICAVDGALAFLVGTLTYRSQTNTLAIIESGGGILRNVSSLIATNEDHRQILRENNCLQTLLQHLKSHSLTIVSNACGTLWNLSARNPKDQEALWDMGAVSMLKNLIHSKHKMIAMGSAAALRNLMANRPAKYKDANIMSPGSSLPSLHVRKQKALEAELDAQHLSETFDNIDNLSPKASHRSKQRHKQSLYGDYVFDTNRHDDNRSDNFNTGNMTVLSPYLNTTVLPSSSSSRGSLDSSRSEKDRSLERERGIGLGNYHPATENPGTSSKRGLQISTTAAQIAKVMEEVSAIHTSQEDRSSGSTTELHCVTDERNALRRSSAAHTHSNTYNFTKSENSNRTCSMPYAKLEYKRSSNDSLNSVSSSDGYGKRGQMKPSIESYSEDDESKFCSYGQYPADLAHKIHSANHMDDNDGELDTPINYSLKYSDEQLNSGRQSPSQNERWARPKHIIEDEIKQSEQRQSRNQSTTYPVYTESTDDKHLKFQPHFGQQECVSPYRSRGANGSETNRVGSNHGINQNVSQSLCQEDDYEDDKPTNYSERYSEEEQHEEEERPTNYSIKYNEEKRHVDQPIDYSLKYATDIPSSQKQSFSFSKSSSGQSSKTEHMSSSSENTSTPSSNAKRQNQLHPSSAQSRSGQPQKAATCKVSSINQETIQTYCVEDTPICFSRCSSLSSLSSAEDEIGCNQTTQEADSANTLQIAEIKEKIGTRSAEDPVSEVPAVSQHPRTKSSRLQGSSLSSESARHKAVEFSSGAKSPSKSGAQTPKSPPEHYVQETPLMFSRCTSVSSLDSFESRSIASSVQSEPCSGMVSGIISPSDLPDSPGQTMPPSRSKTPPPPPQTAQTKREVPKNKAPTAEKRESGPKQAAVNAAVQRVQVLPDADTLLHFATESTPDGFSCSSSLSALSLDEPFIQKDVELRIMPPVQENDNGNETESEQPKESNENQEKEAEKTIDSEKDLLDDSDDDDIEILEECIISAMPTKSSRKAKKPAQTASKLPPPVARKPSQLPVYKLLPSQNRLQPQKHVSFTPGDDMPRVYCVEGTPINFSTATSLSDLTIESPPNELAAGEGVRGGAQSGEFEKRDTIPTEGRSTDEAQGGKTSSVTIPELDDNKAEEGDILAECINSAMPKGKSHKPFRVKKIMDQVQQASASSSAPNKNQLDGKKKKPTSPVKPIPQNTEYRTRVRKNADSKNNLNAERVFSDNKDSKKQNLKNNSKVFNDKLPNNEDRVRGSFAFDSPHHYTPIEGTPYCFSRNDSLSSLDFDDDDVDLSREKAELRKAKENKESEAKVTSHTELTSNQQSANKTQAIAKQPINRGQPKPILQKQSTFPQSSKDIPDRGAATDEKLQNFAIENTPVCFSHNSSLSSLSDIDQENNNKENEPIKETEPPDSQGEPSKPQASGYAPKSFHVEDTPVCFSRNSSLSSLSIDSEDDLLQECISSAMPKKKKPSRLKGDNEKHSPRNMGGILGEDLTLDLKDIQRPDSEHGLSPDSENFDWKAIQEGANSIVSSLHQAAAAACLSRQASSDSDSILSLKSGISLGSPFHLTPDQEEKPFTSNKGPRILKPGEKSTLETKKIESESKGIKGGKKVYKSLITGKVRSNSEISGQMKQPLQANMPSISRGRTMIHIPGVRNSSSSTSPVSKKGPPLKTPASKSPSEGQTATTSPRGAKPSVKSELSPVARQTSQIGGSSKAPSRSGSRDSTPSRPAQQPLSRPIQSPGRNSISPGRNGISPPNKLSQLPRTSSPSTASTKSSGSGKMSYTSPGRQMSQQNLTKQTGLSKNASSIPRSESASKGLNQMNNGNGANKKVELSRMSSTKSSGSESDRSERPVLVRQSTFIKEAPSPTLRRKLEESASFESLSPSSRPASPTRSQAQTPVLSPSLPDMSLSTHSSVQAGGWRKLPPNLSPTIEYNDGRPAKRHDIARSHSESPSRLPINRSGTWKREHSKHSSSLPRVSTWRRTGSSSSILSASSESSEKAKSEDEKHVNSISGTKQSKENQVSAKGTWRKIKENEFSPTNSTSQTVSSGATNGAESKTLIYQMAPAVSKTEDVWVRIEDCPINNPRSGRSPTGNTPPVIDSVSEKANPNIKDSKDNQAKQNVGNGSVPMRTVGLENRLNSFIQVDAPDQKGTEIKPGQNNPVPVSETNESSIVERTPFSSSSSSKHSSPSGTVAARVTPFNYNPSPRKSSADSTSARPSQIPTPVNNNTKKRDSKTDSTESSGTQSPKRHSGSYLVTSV
# UniProt P27695, whole entry, looked up: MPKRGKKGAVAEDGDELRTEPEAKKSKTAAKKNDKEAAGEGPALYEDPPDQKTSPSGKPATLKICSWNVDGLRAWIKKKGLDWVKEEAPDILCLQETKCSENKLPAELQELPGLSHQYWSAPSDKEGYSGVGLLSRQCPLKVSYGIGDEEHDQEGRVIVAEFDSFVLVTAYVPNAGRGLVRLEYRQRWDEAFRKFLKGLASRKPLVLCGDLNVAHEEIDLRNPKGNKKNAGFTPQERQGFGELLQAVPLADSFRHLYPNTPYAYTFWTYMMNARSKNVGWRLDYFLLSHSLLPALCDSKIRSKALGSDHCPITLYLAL
# UniProt Q8N264: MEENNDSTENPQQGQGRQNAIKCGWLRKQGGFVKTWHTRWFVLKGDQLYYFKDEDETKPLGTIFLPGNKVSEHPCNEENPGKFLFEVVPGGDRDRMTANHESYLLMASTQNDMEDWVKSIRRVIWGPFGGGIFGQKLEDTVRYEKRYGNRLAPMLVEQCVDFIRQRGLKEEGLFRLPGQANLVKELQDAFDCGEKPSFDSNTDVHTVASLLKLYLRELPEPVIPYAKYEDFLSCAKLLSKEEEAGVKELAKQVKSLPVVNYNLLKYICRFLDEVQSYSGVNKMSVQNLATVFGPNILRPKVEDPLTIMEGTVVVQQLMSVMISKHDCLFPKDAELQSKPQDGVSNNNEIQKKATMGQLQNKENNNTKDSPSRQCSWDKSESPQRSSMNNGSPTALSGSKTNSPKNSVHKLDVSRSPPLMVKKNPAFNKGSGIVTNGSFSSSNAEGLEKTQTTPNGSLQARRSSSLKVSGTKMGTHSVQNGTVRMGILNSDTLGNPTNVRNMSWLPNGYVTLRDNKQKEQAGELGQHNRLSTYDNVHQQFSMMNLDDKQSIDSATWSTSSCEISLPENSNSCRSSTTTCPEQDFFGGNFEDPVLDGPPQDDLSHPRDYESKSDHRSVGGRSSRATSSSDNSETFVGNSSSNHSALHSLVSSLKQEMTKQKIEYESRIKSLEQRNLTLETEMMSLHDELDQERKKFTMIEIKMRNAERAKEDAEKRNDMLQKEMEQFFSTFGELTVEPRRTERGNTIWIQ
# UniProt Q53QZ3: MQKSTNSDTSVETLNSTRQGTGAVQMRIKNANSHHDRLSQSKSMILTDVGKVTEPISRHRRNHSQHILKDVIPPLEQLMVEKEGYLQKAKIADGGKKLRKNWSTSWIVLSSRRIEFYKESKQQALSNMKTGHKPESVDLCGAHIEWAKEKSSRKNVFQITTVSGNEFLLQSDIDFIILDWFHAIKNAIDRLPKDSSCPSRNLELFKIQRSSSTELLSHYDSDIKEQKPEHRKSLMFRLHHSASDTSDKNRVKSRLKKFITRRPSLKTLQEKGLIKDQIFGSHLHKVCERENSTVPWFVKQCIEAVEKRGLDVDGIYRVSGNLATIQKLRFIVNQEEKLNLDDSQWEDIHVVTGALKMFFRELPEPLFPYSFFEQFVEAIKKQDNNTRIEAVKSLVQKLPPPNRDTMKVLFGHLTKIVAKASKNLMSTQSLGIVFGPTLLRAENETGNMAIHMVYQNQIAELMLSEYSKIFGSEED
# How the values were obtained:
# Assay in all cases: log2 fold change, soluble protein after heating vs DMSO (PISA); higher = thermal stabilisation; K562 lysate, 10 uM; active = over 0.2 and 3.5 SD of the protein, either way, in both replicates (recomputed)
# alvocidib = compound: CN1CC[C@H](c2c(O)cc(O)c3c(=O)cc(-c4ccccc4Cl)oc23)[C@H](O)C1 [alvocidib]
# Method in brief: (§1)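 Values give the log-two fold change in thermal stability against solvent controls, from duplicates. Crude K562 extract at 1 mg/mL protein, made by dounce homogenisation in PBS pH 7.4 with 1 mM MgCl2, was treated with 10 μM compound for 30 min. After 3 min heating across 48°C-58°C, aliquots were pooled, adjusted to 0.5% NP-40 at 4°C and centrifuged at 21,000xg for 90 min. The supernatant was measured by TMTpro 16plex LC-MS/MS with channel sums equalised.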
# Tubastatin A = compound: CN1CCc2c(c3ccccc3n2Cc2ccc(C(=O)NO)cc2)C1 [Tubastatin A]
# Method in brief: as §1
# [1] = compound: CNC(=O)C1=CC=CC=C1NC2=NC(=NC=C2Cl)NC3=C(C=C(C=C3)N4CCOCC4)OC
# Method in brief: as §1
# pictilisib = compound: CS(=O)(=O)N1CCN(Cc2cc3nc(-c4cccc5[nH]ncc45)nc(N4CCOCC4)c3s2)CC1 [pictilisib]
# Method in brief: as §1
# crizotinib = compound: C[C@@H](Oc1cc(-c2cnn(C3CCNCC3)c2)cnc1N)c1c(Cl)ccc(F)c1Cl [crizotinib]
# Method in brief: as §1
# [2] = compound: C[C@H](C1=CC=C(C=C1)C(=O)NC2=C3C=CNC3=NC=C2)N
# Method in brief: as §1
# gandotinib = compound: Cc1cc(Nc2cc(CN3CCOCC3)c3nc(C)c(Cc4ccc(Cl)cc4F)n3n2)n[nH]1 [gandotinib]
# Method in brief: as §1
# doramapimod = compound: Cc1ccc(-n2nc(C(C)(C)C)cc2NC(=O)Nc2ccc(OCCN3CCOCC3)c3ccccc23)cc1 [doramapimod]
# Method in brief: as §1
# bafetinib = compound: Cc1ccc(NC(=O)c2ccc(CN3CC[C@H](N(C)C)C3)c(C(F)(F)F)c2)cc1Nc1nccc(-c2cncnc2)n1 [bafetinib]
# Method in brief: as §1
# [3] = compound: Cc1cccc(CC(=O)N2CCc3c2ccc(-c2cn(C)c4ncnc(N)c24)c3F)n1
# Method in brief: as §1
# defactinib = compound: CNC(=O)c1ccc(Nc2ncc(C(F)(F)F)c(NCc3nccnc3N(C)S(C)(=O)=O)n2)cc1 [defactinib]
# Method in brief: as §1
# [4] = compound: CNc1nc(-c2ccc3c(N)n[nH]c3c2)cc(N2C[C@@H](C(=O)NC3CCCCC3)CC[C@H]2C)n1
# Method in brief: as §1
# encorafenib = compound: COC(=O)N[C@@H](C)CNc1nccc(-c2cn(C(C)C)nc2-c2cc(Cl)cc(NS(C)(=O)=O)c2F)n1 [encorafenib]
# Method in brief: as §1
# [5] = compound: COC(=O)[C@H](CCSC)NC(=O)C1=C(C=C(C=C1)NC[C@H](CS)N)C2=CC=CC=C2
# Method in brief: as §1
# alisertib = compound: COc1cc(Nc2ncc3c(n2)-c2ccc(Cl)cc2C(c2c(F)cccc2OC)=NC3)ccc1C(=O)O [alisertib]
# Method in brief: as §1
# [6] = compound: COc1cc2nc(-c3cc(F)ccc3O)nc(N[C@@H]3CNC[C@H]3C(C)(C)O)c2cc1OC
# Method in brief: as §1
# gefitinib = compound: COc1cc2ncnc(Nc3ccc(F)c(Cl)c3)c2cc1OCCCN1CCOCC1 [gefitinib]
# Method in brief: as §1
# lapatinib = compound: CS(=O)(=O)CCNCc1ccc(-c2ccc3ncnc(Nc4ccc(OCc5cccc(F)c5)c(Cl)c4)c3c2)o1 [lapatinib]
# Method in brief: as §1
# duvelisib = compound: C[C@H](Nc1ncnc2nc[nH]c12)c1cc2cccc(Cl)c2c(=O)n1-c1ccccc1 [duvelisib]
# Method in brief: as §1
# tozasertib = compound: Cc1cc(Nc2cc(N3CCN(C)CC3)nc(Sc3ccc(NC(=O)C4CC4)cc3)n2)n[nH]1 [tozasertib]
# Method in brief: as §1
Target,log2 fold change (alvocidib),log2 fold change (Tubastatin A),log2 fold change [1],log2 fold change (pictilisib),log2 fold change (crizotinib),log2 fold change [2],log2 fold change (gandotinib),log2 fold change (doramapimod),log2 fold change (bafetinib),log2 fold change [3],log2 fold change (defactinib),log2 fold change [4],log2 fold change (encorafenib),log2 fold change [5],log2 fold change (alisertib),log2 fold change [6],log2 fold change (gefitinib),log2 fold change (lapatinib),log2 fold change (duvelisib),log2 fold change (tozasertib)
APPBP2 (UniProt Q92624),inactive: -0.078,inactive: 0.05,inactive: 0.031,inactive: -0.222,inactive: -0.132,inactive: -0.224,inactive: -0.086,inactive: -0.078,inactive: 0.026,inactive: 0.021,–,–,–,–,–,–,–,–,–,–
ARV1 (UniProt Q9H2C2),inactive: 0.2,inactive: -0.001,–,inactive: 0.023,inactive: 0.077,inactive: -0.067,inactive: -0.084,inactive: -0.129,inactive: -0.117,inactive: 0.029,inactive: 0.088,inactive: -0.153,inactive: -0.03,inactive: -0.295,inactive: -0.12,inactive: 0.087,inactive: 0.115,inactive: -0.1,inactive: -0.08,inactive: -0.002
APRT (UniProt P07741),inactive: 0.007,inactive: 0.035,inactive: -0.028,inactive: -0.012,inactive: -0.01,inactive: -0.013,inactive: 0.025,inactive: -0.027,inactive: 0.023,inactive: -0.002,inactive: -0.025,inactive: 0.046,inactive: -0.042,inactive: 0.018,inactive: 0.005,inactive: 0.039,inactive: -0.016,inactive: -0.022,inactive: 0.014,inactive: -0.008
APBA1 (UniProt Q02410),inactive: 0.034,inactive: -0.218,inactive: -0.03,inactive: 0.049,inactive: -0.046,inactive: -0.128,inactive: -0.01,inactive: 0.053,inactive: 0.009,inactive: -0.016,–,–,inactive: -0.067,inactive: -0.019,inactive: 0.072,inactive: 0.063,inactive: 0.077,inactive: 0.053,–,inactive: 0.022
API5 isoform 1 (UniProt Q9BZZ5),inactive: -0.089,inactive: 0.105,–,–,inactive: 0.073,inactive: 0.201,inactive: 0.079,inactive: 0.065,–,inactive: 0.025,–,–,–,–,inactive: 0.029,–,inactive: -0.159,–,–,–
ARL15 (UniProt Q9NXU5),inactive: 0.177,inactive: -0.002,inactive: -0.013,inactive: 0.097,inactive: 0,active: 0.682,inactive: -0.098,inactive: 0.06,inactive: 0.225,inactive: -0.118,inactive: -0.013,inactive: -0.021,inactive: 0.037,inactive: -0.211,inactive: 0.005,inactive: 0,inactive: -0.057,inactive: -0.001,inactive: -0.004,inactive: 0.023
APP (UniProt P05067),inactive: 0.066,–,inactive: -0.011,inactive: 0,inactive: 0.075,inactive: -0.121,inactive: 0.033,inactive: 0.033,inactive: -0.056,inactive: -0.019,–,inactive: -0.098,inactive: 0.078,inactive: -0.013,inactive: -0.016,–,inactive: 0.039,–,inactive: -0.063,inactive: -0.057
APC (UniProt P25054),inactive: -0.117,inactive: -0.055,inactive: -0.01,inactive: -0.086,inactive: -0.038,inactive: -0.158,inactive: 0.005,inactive: 0.028,inactive: 0.045,inactive: 0.043,inactive: -0.128,inactive: -0.089,inactive: 0.11,inactive: 0.101,–,–,–,–,inactive: -0.033,inactive: 0.056
APEX1 (UniProt P27695),inactive: 0.13,inactive: -0.07,inactive: 0.006,inactive: 0.039,inactive: -0.01,active: 0.352,inactive: -0.042,inactive: -0.045,inactive: 0.106,inactive: -0.067,inactive: 0.023,inactive: 0.038,inactive: -0.024,inactive: 0.076,inactive: 0,inactive: -0.019,inactive: -0.064,inactive: 0.022,inactive: -0.025,inactive: -0.029
ARL5A (UniProt Q9Y689),inactive: -0.134,inactive: 0.02,–,–,inactive: -0.064,inactive: -0.147,inactive: -0.092,inactive: 0.003,–,inactive: 0.013,inactive: -0.105,inactive: 0.177,inactive: -0.06,inactive: -0.064,inactive: -0.074,inactive: 0.094,inactive: -0.054,inactive: 0.06,inactive: 0.04,inactive: 0.12
ARHGAP24 (UniProt Q8N264),inactive: 0.031,–,inactive: 0.135,–,–,inactive: 0.187,inactive: -0.018,–,–,inactive: -0.015,inactive: -0.325,–,inactive: 0.174,inactive: -0.128,inactive: 0.039,–,inactive: 0.126,–,–,inactive: 0.067
ARMC8 isoform 6 (UniProt Q8IUR7),inactive: -0.002,–,inactive: 0.032,–,–,inactive: -0.025,inactive: -0.042,–,–,inactive: 0.047,–,–,–,–,–,inactive: -0.035,–,inactive: 0.008,–,–
ART4 (UniProt Q93070),inactive: 0.024,–,–,inactive: 0.005,–,inactive: 0.028,inactive: 0.012,–,inactive: -0.019,inactive: -0.008,inactive: -0.041,–,inactive: 0.001,inactive: -0.088,–,–,–,–,–,inactive: 0.07
ARFIP1 isoform 2 (UniProt P53367),inactive: 0.129,inactive: 0.084,–,inactive: -0.012,–,inactive: -0.147,inactive: 0.014,–,inactive: 0.016,inactive: 0.029,inactive: 0.149,inactive: -0.089,inactive: -0.11,inactive: 0.049,inactive: 0.045,inactive: -0.007,inactive: 0.443,inactive: -0.059,inactive: 0.053,inactive: -0.015
ARHGAP15 (UniProt Q53QZ3),–,–,–,–,inactive: -0.166,–,–,inactive: -0.082,–,–,–,–,inactive: -0.052,inactive: 0.084,–,inactive: 0.057,–,inactive: 0.043,–,inactive: 0.048

# Looked up one by one from the list above, 2 records:
Target,log2 fold change (alvocidib),log2 fold change (Tubastatin A),log2 fold change [1],log2 fold change (pictilisib),log2 fold change (crizotinib),log2 fold change [2],log2 fold change (gandotinib),log2 fold change (doramapimod),log2 fold change (bafetinib),log2 fold change [3],log2 fold change (defactinib),log2 fold change [4],log2 fold change (encorafenib),log2 fold change [5],log2 fold change (alisertib),log2 fold change [6],log2 fold change (gefitinib),log2 fold change (lapatinib),log2 fold change (duvelisib),log2 fold change (tozasertib)
ARL5A (UniProt Q9Y689),inactive: -0.134,inactive: 0.02,–,–,inactive: -0.064,inactive: -0.147,inactive: -0.092,inactive: 0.003,–,inactive: 0.013,inactive: -0.105,inactive: 0.177,inactive: -0.06,inactive: -0.064,inactive: -0.074,inactive: 0.094,inactive: -0.054,inactive: 0.06,inactive: 0.04,inactive: 0.12
APRT (UniProt P07741),inactive: 0.007,inactive: 0.035,inactive: -0.028,inactive: -0.012,inactive: -0.01,inactive: -0.013,inactive: 0.025,inactive: -0.027,inactive: 0.023,inactive: -0.002,inactive: -0.025,inactive: 0.046,inactive: -0.042,inactive: 0.018,inactive: 0.005,inactive: 0.039,inactive: -0.016,inactive: -0.022,inactive: 0.014,inactive: -0.008

# — the supplement of paper PMC10849652
